# These are yes or no findings as the source states them, for the method shown. In cells and extracts the contact can be indirect. Binding can be weak; no strength is given.
# Protein sequences, listed by entry. Tags and fused reporters are not part of them. Lines headed by an entry give the natural chain unless they say otherwise; changes in a name come on top.
# UniProt Q13444: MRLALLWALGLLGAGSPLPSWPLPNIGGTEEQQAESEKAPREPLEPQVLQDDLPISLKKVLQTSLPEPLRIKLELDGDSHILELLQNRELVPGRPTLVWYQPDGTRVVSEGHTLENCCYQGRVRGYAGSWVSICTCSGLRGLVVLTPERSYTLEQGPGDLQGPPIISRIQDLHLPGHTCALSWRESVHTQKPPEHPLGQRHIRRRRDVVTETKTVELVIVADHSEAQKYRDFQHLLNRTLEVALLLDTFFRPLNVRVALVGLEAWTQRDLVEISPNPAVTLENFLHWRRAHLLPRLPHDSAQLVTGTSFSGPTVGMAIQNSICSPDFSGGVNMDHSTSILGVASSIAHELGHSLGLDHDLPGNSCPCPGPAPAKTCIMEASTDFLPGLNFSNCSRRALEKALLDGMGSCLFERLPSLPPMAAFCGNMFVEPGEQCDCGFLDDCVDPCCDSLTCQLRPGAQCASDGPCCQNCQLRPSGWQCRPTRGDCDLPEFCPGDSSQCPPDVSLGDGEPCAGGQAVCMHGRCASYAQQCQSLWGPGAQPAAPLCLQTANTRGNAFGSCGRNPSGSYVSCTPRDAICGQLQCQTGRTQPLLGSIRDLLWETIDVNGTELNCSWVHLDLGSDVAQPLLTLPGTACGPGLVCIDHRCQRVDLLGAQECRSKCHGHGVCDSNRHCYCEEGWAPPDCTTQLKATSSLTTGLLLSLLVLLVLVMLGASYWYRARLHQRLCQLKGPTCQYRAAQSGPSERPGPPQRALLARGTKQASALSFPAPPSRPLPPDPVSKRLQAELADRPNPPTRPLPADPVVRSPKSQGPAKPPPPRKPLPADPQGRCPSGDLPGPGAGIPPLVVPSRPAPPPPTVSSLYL
# UniProt P11940: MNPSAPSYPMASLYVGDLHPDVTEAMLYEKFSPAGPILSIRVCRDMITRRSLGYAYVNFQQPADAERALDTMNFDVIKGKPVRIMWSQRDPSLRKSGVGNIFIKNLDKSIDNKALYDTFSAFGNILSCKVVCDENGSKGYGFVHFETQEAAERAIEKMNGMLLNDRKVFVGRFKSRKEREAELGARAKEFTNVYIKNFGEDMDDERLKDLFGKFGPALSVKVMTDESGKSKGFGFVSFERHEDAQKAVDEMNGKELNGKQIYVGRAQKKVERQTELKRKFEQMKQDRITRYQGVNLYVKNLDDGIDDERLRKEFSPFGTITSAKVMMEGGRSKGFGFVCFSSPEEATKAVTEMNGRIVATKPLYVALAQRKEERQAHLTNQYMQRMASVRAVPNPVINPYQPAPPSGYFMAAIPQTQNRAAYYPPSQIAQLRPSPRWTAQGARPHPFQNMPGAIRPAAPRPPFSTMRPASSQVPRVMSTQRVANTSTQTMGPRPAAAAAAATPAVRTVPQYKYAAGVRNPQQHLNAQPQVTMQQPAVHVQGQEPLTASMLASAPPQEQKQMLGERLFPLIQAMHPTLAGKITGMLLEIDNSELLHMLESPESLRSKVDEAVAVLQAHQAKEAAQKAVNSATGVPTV
# How the values were obtained:
# full-length ADAM15 = full-length ADAM15 (UniProt Q13444); test: co-IP; lysates of the T/C28a4 chondrocyte line stably transfected with full-length ADAM15 or the ΔC mutant (10 mM HEPES pH 7.0, 150 mM NaCl, 5 mM EDTA, 1% Triton X-100); IP with mouse monoclonal or goat polyclonal anti-ADAM15, or with anti-PABP, and Protein G agarose, 90 min at 4°C; immunoblot; also with RNase I (5 U/ml) overnight
# [1] = biological target: poly(A) binding protein 1 (PABP) (human (endogenous in T/C28a4)) (UniProt P11940); test: as above
binding (full-length ADAM15),binding [1],Substance
binds,–,poly(A) binding protein 1 (PABP) (from UniProt P11940 1-636)
–,binds,full-length ADAM15 (from UniProt Q13444-2)
